Measured values reported in the supplement of paper PMC12823440, “Inhibitors supercharge kinase turnover through native proteolytic circuits” (Nature, 2025).
Structures can show the parent of a compound that is named as a salt. The list shows a part of the results. The calls rarely recur for the same compound in another form.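 Kinases, fused to nanoluciferase, were expressed in K562 cells; luminescence was measured every 4 h from 2 to 18 h as percent of control (DMSO = 100%, positive control = 0%). A time point is decreased if signal falls significantly (2 sigma). Hits were called by the authors by a rule that is not shown; the count of time points alone does not decide it.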

Amino acid sequences for entries named in this document (tags omitted). A change or cut given only in a name is not applied to a line headed by its entry.
UniProt O75460: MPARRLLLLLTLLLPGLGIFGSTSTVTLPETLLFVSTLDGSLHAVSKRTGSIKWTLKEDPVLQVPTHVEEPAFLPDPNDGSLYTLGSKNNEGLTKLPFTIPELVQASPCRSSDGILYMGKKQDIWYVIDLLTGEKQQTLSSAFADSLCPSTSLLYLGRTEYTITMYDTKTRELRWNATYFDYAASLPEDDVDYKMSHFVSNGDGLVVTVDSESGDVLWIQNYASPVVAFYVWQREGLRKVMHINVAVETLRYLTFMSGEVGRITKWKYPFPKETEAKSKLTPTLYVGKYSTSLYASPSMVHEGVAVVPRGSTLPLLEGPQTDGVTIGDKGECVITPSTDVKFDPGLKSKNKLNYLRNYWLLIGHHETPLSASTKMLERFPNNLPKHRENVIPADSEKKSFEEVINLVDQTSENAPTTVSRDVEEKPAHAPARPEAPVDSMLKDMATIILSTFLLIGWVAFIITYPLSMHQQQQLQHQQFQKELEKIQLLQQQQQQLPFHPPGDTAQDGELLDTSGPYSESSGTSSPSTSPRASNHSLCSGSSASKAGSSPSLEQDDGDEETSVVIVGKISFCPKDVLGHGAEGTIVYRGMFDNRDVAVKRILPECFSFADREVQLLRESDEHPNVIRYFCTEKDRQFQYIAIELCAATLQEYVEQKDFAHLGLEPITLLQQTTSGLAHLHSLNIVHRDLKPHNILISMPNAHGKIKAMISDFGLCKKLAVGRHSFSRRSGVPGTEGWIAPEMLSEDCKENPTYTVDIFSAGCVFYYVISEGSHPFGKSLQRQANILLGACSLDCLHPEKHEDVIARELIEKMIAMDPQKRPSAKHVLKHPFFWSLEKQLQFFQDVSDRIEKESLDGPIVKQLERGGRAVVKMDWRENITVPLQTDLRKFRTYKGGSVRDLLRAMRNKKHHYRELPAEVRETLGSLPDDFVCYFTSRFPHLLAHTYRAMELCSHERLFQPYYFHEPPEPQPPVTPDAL
UniProt P11362, whole entry, looked up: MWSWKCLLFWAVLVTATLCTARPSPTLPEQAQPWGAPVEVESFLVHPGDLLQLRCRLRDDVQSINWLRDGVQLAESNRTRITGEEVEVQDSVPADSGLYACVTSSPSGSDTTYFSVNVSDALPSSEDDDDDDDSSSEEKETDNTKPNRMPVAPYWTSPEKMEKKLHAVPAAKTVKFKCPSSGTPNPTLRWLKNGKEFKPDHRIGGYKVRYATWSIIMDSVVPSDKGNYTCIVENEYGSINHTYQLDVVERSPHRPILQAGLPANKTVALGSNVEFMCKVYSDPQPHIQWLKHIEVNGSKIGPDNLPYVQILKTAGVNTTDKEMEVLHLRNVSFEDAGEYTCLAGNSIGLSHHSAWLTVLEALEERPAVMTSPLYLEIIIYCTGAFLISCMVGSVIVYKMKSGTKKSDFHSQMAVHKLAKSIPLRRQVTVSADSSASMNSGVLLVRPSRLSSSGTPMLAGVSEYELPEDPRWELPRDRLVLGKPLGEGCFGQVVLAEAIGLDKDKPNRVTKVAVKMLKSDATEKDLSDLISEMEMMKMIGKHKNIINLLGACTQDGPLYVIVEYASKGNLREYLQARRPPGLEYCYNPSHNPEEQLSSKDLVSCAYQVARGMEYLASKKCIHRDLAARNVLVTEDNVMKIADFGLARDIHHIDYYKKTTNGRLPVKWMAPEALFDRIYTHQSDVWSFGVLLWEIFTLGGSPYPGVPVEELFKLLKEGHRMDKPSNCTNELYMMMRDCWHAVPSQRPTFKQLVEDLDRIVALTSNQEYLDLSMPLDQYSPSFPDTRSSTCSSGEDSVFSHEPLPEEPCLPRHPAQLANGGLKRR
UniProt P22607, whole entry, looked up: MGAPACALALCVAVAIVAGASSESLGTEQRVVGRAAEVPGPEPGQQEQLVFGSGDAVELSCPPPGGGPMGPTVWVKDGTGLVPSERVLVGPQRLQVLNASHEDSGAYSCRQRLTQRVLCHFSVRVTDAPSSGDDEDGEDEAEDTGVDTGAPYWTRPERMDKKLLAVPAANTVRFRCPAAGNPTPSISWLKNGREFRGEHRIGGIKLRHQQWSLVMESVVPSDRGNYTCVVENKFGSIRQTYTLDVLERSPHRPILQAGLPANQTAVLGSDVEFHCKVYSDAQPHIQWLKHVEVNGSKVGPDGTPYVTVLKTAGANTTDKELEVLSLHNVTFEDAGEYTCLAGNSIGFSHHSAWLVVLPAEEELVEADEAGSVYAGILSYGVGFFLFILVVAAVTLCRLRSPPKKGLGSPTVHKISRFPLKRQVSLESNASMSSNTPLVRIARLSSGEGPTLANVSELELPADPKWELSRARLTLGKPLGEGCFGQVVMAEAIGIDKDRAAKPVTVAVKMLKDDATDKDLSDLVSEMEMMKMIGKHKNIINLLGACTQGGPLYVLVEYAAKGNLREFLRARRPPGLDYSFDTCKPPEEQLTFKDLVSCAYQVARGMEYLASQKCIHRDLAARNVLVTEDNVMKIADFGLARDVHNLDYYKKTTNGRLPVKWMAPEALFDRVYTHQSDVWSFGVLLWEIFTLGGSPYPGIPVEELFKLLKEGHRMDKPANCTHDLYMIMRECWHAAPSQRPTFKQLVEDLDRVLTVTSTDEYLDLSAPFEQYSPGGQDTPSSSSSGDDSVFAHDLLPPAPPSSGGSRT
UniProt P36888, whole entry: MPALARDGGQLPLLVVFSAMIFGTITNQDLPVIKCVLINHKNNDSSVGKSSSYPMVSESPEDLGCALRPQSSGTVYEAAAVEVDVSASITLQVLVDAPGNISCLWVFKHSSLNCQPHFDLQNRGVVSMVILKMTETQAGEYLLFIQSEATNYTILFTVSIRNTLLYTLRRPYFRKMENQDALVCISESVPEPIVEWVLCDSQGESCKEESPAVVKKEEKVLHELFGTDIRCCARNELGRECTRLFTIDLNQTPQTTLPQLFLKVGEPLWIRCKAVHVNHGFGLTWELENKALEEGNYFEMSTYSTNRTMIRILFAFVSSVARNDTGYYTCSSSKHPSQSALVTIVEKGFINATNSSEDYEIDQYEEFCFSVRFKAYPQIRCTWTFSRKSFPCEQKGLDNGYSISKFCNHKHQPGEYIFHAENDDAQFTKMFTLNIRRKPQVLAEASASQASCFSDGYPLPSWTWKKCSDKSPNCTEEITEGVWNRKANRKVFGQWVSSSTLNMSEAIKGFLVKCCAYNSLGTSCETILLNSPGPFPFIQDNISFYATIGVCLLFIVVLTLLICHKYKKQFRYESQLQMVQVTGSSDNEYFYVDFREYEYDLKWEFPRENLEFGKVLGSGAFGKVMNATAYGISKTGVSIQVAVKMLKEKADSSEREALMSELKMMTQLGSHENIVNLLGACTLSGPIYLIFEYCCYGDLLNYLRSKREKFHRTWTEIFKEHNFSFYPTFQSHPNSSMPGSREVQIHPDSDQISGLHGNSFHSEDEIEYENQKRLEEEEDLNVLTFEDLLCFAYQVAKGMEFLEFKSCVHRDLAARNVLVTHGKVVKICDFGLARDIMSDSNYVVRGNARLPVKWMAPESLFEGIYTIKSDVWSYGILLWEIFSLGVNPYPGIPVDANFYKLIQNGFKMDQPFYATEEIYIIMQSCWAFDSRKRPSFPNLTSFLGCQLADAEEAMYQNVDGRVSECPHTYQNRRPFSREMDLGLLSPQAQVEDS
UniProt P06241, whole entry, looked up: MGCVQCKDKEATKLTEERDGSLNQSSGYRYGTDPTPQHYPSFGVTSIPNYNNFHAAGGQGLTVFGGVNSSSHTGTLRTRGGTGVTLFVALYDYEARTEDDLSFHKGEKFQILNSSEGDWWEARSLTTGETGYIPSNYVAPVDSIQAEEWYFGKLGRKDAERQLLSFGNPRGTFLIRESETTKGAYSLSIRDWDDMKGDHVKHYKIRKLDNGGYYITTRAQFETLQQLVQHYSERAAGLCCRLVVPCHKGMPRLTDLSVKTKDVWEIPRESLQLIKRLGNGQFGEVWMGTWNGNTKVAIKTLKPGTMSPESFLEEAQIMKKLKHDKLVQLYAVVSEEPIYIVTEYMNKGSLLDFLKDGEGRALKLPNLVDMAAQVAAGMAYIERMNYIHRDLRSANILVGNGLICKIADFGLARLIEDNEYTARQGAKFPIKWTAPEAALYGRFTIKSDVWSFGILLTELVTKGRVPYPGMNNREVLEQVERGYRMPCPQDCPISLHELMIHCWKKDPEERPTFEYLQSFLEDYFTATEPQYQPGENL
UniProt P49840: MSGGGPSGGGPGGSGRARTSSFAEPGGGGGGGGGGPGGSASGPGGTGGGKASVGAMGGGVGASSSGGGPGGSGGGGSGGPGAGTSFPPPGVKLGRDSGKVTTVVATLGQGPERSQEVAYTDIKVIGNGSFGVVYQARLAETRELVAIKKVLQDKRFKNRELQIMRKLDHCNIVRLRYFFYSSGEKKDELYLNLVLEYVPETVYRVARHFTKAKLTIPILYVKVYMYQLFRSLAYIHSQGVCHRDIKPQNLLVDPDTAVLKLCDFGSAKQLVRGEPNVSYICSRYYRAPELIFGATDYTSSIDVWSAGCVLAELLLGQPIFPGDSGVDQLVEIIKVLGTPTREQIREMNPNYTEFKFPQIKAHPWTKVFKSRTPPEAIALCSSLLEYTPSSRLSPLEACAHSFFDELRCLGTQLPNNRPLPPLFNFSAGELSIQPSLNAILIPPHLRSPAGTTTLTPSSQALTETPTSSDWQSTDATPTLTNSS
UniProt P14616: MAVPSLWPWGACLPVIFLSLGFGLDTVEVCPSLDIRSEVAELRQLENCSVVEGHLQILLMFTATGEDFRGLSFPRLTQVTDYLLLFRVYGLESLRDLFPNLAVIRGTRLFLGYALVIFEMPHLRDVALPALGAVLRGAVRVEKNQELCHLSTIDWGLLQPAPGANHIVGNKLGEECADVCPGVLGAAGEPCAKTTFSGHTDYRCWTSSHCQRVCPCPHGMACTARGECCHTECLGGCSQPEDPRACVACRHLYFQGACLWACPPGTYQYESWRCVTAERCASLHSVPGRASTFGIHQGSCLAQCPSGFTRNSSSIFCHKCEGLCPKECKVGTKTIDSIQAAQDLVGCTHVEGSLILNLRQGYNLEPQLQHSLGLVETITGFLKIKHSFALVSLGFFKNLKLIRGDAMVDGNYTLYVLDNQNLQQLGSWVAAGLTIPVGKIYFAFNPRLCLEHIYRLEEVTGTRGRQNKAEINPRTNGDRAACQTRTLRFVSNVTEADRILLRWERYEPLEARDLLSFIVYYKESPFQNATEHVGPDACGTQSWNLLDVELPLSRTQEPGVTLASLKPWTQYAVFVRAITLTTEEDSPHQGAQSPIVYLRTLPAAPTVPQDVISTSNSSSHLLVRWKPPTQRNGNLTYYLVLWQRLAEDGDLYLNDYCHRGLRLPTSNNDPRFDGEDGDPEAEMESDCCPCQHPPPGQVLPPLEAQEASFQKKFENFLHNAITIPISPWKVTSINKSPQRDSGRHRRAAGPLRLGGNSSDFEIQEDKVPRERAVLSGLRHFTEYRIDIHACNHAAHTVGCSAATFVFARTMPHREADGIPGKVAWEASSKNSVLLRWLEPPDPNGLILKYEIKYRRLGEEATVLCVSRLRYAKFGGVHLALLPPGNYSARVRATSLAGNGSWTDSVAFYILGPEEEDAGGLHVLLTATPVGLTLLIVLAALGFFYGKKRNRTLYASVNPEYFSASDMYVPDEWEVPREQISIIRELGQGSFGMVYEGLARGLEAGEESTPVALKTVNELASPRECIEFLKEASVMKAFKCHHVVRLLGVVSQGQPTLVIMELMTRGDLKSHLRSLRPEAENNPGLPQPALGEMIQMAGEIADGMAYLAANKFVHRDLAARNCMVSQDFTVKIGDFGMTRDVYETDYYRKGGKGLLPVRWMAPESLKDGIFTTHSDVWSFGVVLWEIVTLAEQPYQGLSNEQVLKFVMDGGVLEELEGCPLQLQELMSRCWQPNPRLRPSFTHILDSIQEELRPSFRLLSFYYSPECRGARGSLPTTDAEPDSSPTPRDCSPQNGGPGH

Experiments:
Experiment in all cases: kinase-Nluc reporter destabilization hit call (1 = scored as downregulated) (binary); higher = compound decreases kinase abundance
Settings in all cases: K562; 2-18 h
ERN1 = ERN1 (UniProt O75460)
FGFR1 = FGFR1 (UniProt P11362)
FGFR2 = FGFR2 (UniProt P21802)
FGFR3 = FGFR3 (UniProt P22607)
FGR = FGR (UniProt P09769)
FLT3 = FLT3 (UniProt P36888)
FYN = FYN (UniProt P06241)
GSK3A = GSK3A (UniProt P49840)
HER2 = HER2 (UniProt P04626)
INSRR = INSRR (UniProt P14616)

Measured: kinase-Nluc reporter destabilization hit call

CCn1c2ccccc2c2cc(Nc3ccnc(NCCCN4CCOCC4)n3)ccc21 (2.5 µM)
inactive: ERN1 = 0 | FGFR1 = 0 | FGFR2 = 0 | FGFR3 = 0 | FGR 0 | FLT3 = 0 | FYN 0 | GSK3A 0 | HER2 = 0 | INSRR 0

COc1cc(-c2cnc(N)c(-c3ccc(NC(=O)c4cn(CC5CCOCC5)cc(-c5ccc(C)cn5)c4=O)cc3F)c2)ccc1OC[C@H]1COCCO1 [DS-1205b (free base)] (10 µM)
inactive: ERN1 = 0 | FGFR1 = 0 | FGFR2 = 0 | FGFR3 = 0 | FGR 0 | FLT3 = 0 | FYN 0 | GSK3A 0 | HER2 = 0 | INSRR 0

O=C(c1ccc(NS(=O)(=O)c2cccc3cccnc23)cc1)N1CCN(CC2CC2)CC1 [Mitapivat] (10 µM)
inactive: ERN1 = 0 | FGFR1 = 0 | FGFR2 = 0 | FGFR3 = 0 | FGR 0 | FLT3 = 0 | FYN 0 | GSK3A 0 | HER2 = 0 | INSRR 0

O=C1C(=Cc2ccc(O)c(O)c2)Oc2ccccc21 (2.5 µM)
inactive: ERN1 = 0 | FGFR1 = 0 | FGFR2 = 0 | FGFR3 = 0 | FGR 0 | FLT3 = 0 | FYN 0 | GSK3A 0 | HER2 = 0 | INSRR 0

COC(=O)[C@]1(C)CC[C@]2(C(=O)O[C@@H]3O[C@H](CO)[C@@H](O)[C@H](O)[C@H]3O)CC[C@]3(C)C(=CC[C@@H]4[C@@]5(C)C[C@H](O)[C@H](O[C@@H]6OC[C@@H](O[C@@H]7O[C@H](CO)[C@@H](O)[C@H](O)[C@H]7O)[C@H](O)[C@H]6O)[C@@](C)(CO)C5CC[C@]43C)[C@H]2C1 (stereo not given in full) [Esculentoside H] (10 µM)
inactive: ERN1 = 0 | FGFR1 = 0 | FGFR2 = 0 | FGFR3 = 0 | FGR 0 | FLT3 = 0 | FYN 0 | GSK3A 0 | HER2 = 0 | INSRR 0

C=CC(=O)N[C@H]1CCOC[C@H]1Nc1ncc2cc(-c3c(Cl)c(OC)cc(OC)c3Cl)ccc2n1 [Fisogatinib] (10 µM)
inactive: ERN1 = 0 | FGFR1 = 0 | FGFR2 = 0 | FGFR3 = 0 | FGR 0 | FLT3 = 0 | FYN 0 | GSK3A 0 | HER2 = 0 | INSRR 0

O=C(N/N=C/c1ccc([N+](=O)[O-])o1)c1ccc(O)cc1 [Nifuroxazide] (10 µM)
inactive: ERN1 = 0 | FGFR1 = 0 | FGFR2 = 0 | FGFR3 = 0 | FGR 0 | FLT3 = 0 | FYN 0 | GSK3A 0 | HER2 = 0 | INSRR 0

Cc1cc(Nc2ncc(Cl)c(Nc3ccccc3S(=O)(=O)C(C)C)n2)c(OC(C)C)cc1C1CCN(CC(=O)NCCNc2cccc3c2C(=O)N(C2CCC(=O)NC2=O)C3=O)CC1 (stereo not given) (10 µM)
inactive: ERN1 = 0 | FGFR1 = 0 | FGFR2 = 0 | FGFR3 = 0 | FGR 0 | FLT3 = 0 | FYN 0 | GSK3A 0 | HER2 = 0 | INSRR 0

CC[C@H](C)[C@@H]1NC(=O)[C@@H]2CCCN2C(=O)[C@@H]2CCCN2C(=O)[C@@H]2CCCN2C(=O)[C@H](CC(C)C)NC(=O)CNC(=O)CNC(=O)[C@H](Cc2ccccc2)NC1=O [Heterophyllin B] (10 µM)
inactive: ERN1 = 0 | FGFR1 = 0 | FGFR2 = 0 | FGFR3 = 0 | FGR 0 | FLT3 = 0 | FYN 0 | GSK3A 0 | HER2 = 0 | INSRR 0

CCCCNc1ncc2c(-c3ccc(CN4CCN(C)CC4)cc3)cn([C@H]3CC[C@H](O)CC3)c2n1 [UNC2025 (hydrochloride)] (2.5 µM)
inactive: ERN1 = 0 | FGFR1 = 0 | FGFR2 = 0 | FGFR3 = 0 | FGR 0 | FLT3 = 0 | FYN 0 | GSK3A 0 | HER2 = 0 | INSRR 0

O=C1NC(=O)C(c2ccccc2[N+](=O)[O-])=C1Nc1ccc(O)c(Cl)c1 (10 µM)
inactive: ERN1 = 0 | FGFR1 = 0 | FGFR2 = 0 | FGFR3 = 0 | FGR 0 | FLT3 = 0 | FYN 0 | GSK3A 0 | HER2 = 0 | INSRR 0

Cc1ncc(F)c(Nc2n[nH]c3c2CN(C(=O)N2C[C@@H](C)N(CC4CCOCC4)C[C@@H]2C)C3(C)C)n1 (10 µM)
inactive: ERN1 = 0 | FGFR1 = 0 | FGFR2 = 0 | FGFR3 = 0 | FGR 0 | FLT3 = 0 | FYN 0 | GSK3A 0 | HER2 = 0 | INSRR 0

N#Cc1c[nH]c2ccc(-c3ccc(-c4c(O)cccc4O)cc3)cc12 (10 µM)
inactive: ERN1 = 0 | FGFR1 = 0 | FGFR2 = 0 | FGFR3 = 0 | FGR 0 | FLT3 = 0 | FYN 0 | GSK3A 0 | HER2 = 0 | INSRR 0

C[C@@H]1O[C@@H](O[C@H]2[C@H](OC(=O)[C@]34CCC(C)(C)C[C@H]3C3=CC[C@@H]5[C@@]6(C)C[C@H](O)[C@H](O[C@@H]7O[C@H](CO)[C@@H](O)[C@H](O)[C@H]7O)C(CO)(CO)[C@@H]6CC[C@@]5(C)[C@]3(C)C[C@H]4O)OC[C@H](O)[C@@H]2O)[C@H](O)[C@H](O)[C@H]1O[C@@H]1OC[C@@H](O)[C@H](O[C@@H]2OC[C@](O)(CO)[C@H]2O)[C@H]1O [Platycodin D] (10 µM)
inactive: ERN1 = 0 | FGFR1 = 0 | FGFR2 = 0 | FGFR3 = 0 | FGR 0 | FLT3 = 0 | FYN 0 | GSK3A 0 | HER2 = 0 | INSRR 0

CCCCCC1CC1CC1CC1CCCCCCCC(=O)O (stereo not given) (10 µM)
inactive: ERN1 = 0 | FGFR1 = 0 | FGFR2 = 0 | FGFR3 = 0 | FGR 0 | FLT3 = 0 | FYN 0 | GSK3A 0 | HER2 = 0 | INSRR 0

C=CC(=O)N1CCN(c2nc(OC[C@@H]3CCCN3C)nc3c2CCN(c2cccc4cccc(C)c24)C3)C[C@@H]1CC#N (2.5 µM)
inactive: ERN1 = 0 | FGFR1 = 0 | FGFR2 = 0 | FGFR3 = 0 | FGR 0 | FLT3 = 0 | FYN 0 | GSK3A 0 | HER2 = 0 | INSRR 0

O=S(=O)(N=Cc1c(O)ccc2ccccc12)c1cccs1 (10 µM)
inactive: ERN1 = 0 | FGFR1 = 0 | FGFR2 = 0 | FGFR3 = 0 | FGR 0 | FLT3 = 0 | FYN 0 | GSK3A 0 | HER2 = 0 | INSRR 0

O=C(Nc1nccs1)C(c1cc(F)ccc1O)N1Cc2ccc(-c3ccc(N4CCNCC4)cc3)cc2C1=O (racemic) (10 µM)
inactive: ERN1 = 0 | FGFR1 = 0 | FGFR2 = 0 | FGFR3 = 0 | FGR 0 | FLT3 = 0 | FYN 0 | GSK3A 0 | HER2 = 0 | INSRR 0

CCc1ccc(NC(=O)Nc2ccccc2)cc1 (10 µM)
inactive: ERN1 = 0 | FGFR1 = 0 | FGFR2 = 0 | FGFR3 = 0 | FGR 0 | FLT3 = 0 | FYN 0 | GSK3A 0 | HER2 = 0 | INSRR 0

O=C(CCc1ccc2n1[B-](F)(F)[N+]1=C(c3ccc[nH]3)C=CC1=C2)ON1C(=O)CCC1=O [Py-BODIPY-NHS ester] (2.5 µM)
inactive: ERN1 = 0 | FGFR1 = 0 | FGFR2 = 0 | FGFR3 = 0 | FGR 0 | FLT3 = 0 | FYN 0 | GSK3A 0 | HER2 = 0 | INSRR 0

O=c1cc(-c2ccc(O)cc2)oc2cc(O)c(O)c(O)c12 [Scutellarein] (10 µM)
inactive: ERN1 = 0 | FGFR1 = 0 | FGFR2 = 0 | FGFR3 = 0 | FGR 0 | FLT3 = 0 | FYN 0 | GSK3A 0 | HER2 = 0 | INSRR 0

CC(=O)Nc1nc(C)c(-c2cc3c(c(S(C)(=O)=O)c2)C(=O)N([C@@H](C)C2CC2)C3)s1 (2.5 µM)
inactive: ERN1 = 0 | FGFR1 = 0 | FGFR2 = 0 | FGFR3 = 0 | FGR 0 | FLT3 = 0 | FYN 0 | GSK3A 0 | HER2 = 0 | INSRR 0

As a working copy, 2 of the compounds above.
O=C(Nc1nccs1)C(c1cc(F)ccc1O)N1Cc2ccc(-c3ccc(N4CCNCC4)cc3)cc2C1=O (racemic) (10 µM)
inactive: ERN1 = 0 | FGFR1 = 0 | FGFR2 = 0 | FGFR3 = 0 | FGR 0 | FLT3 = 0 | FYN 0 | GSK3A 0 | HER2 = 0 | INSRR 0

CCc1ccc(NC(=O)Nc2ccccc2)cc1 (10 µM)
inactive: ERN1 = 0 | FGFR1 = 0 | FGFR2 = 0 | FGFR3 = 0 | FGR 0 | FLT3 = 0 | FYN 0 | GSK3A 0 | HER2 = 0 | INSRR 0

Remaining list, next part

COc1cc(/C=C/c2ccc(NC(=O)/C=C/c3cc(OC)c(OC)c(OC)c3)cc2)cc(OC)c1 (2.5 µM)
inactive: ERN1 = 0 | FGFR1 = 0 | FGFR2 = 0 | FGFR3 = 0 | FGR 0 | FLT3 = 0 | FYN 0 | GSK3A 0 | HER2 = 0 | INSRR 0

COc1ccc(COc2cc3oc(=O)c4cc(C(C)O)ccc4c3cc2OC)cc1 (stereo not given) [Palomid 529] (2.5 µM)
inactive: ERN1 = 0 | FGFR1 = 0 | FGFR2 = 0 | FGFR3 = 0 | FGR 0 | FLT3 = 0 | FYN 0 | GSK3A 0 | HER2 = 0 | INSRR 0

CN1CCC(c2ccccc2CC(C)(C)Nc2nc(N3CCOCC3)nc(-n3c(S(C)(=O)=O)nc4ccccc43)n2)CC1 (10 µM)
inactive: ERN1 = 0 | FGFR1 = 0 | FGFR2 = 0 | FGFR3 = 0 | FGR 0 | FLT3 = 0 | FYN 0 | GSK3A 0 | HER2 = 0 | INSRR 0

CNCCOc1ccccc1C(C)(C)Nc1nccn(-c2cc(C(=O)NC3CC3)ccc2C)c1=O [p38α inhibitor 2] (10 µM)
inactive: ERN1 = 0 | FGFR1 = 0 | FGFR2 = 0 | FGFR3 = 0 | FGR 0 | FLT3 = 0 | FYN 0 | GSK3A 0 | HER2 = 0 | INSRR 0

C=CC(=O)Nc1cc(C(=O)NC)cc(-c2n[nH]c3ccccc23)c1 (10 µM)
inactive: ERN1 = 0 | FGFR1 = 0 | FGFR2 = 0 | FGFR3 = 0 | FGR 0 | FLT3 = 0 | FYN 0 | GSK3A 0 | HER2 = 0 | INSRR 0

COc1ccc(C(=O)c2cn(C(C)C)c3ncnc(N)c23)cc1NC(=O)Nc1ccc(Cl)cc1Cl (10 µM)
inactive: ERN1 = 0 | FGFR1 = 0 | FGFR2 = 0 | FGFR3 = 0 | FGR 0 | FLT3 = 0 | FYN 0 | GSK3A 0 | HER2 = 0 | INSRR 0
